Test [1] deals with T1, Bacillus subtilis PBP2B (BACTH fusion) (Bacillus subtilis 168) (UniProt Q07868).
T1 sequence: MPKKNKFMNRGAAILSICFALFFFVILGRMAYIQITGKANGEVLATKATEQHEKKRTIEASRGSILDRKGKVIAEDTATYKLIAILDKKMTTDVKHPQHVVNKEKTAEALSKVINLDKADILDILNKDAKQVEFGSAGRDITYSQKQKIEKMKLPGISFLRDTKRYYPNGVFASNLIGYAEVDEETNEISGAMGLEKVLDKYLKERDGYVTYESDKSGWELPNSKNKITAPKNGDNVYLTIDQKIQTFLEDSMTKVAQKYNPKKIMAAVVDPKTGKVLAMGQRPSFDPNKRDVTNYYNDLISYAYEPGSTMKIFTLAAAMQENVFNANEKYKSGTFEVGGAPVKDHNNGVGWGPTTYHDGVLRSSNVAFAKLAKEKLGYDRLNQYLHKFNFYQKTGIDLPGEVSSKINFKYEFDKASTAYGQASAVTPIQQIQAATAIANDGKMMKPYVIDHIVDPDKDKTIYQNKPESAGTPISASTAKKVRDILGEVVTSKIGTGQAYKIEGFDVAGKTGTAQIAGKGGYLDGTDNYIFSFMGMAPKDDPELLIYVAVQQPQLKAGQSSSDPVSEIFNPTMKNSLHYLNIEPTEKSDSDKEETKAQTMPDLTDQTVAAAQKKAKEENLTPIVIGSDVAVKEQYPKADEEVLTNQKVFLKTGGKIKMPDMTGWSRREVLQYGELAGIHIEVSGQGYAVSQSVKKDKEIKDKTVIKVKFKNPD
The test can be described thus: two-hybrid.

Test [2] concerns the target T1, Bacillus subtilis PBP2B (BACTH fusion) (Bacillus subtilis 168). The test can be described thus: two-hybrid. The source holds these as a separate data set.
Test [3] addresses T2, GFP-PBP2B (Bacillus subtilis) (UniProt Q07868).
T2 sequence: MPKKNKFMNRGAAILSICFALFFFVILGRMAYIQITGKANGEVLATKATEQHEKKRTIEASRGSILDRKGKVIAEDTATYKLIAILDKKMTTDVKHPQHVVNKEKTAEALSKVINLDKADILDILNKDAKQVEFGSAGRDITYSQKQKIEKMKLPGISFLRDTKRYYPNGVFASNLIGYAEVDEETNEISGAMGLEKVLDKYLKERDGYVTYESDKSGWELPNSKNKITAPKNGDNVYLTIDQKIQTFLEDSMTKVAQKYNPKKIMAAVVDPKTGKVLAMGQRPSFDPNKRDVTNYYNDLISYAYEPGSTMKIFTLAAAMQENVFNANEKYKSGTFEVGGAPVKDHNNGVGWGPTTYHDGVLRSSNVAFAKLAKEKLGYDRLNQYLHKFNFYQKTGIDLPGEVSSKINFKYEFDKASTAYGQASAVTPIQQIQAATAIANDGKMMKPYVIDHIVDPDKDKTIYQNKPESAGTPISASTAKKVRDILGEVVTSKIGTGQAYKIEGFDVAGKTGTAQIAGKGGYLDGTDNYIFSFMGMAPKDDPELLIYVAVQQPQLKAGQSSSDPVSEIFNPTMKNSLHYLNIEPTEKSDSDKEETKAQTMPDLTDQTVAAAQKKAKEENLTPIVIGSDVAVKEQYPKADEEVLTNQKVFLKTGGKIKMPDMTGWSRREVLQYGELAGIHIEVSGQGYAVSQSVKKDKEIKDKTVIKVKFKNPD
The test can be described thus: co-IP.

Where two headings read alike, the source gives them in different places. These are yes or no findings as the source states them, for the method shown. For part of these data: Binding seen in cells or lysates may run through a third protein. Some binding calls cover weakened binding; strength is not graded here. Tags and fused reporters may be left off the sequences shown.

B1: Bacillus subtilis DivIB (BACTH fusion) (protein, UniProt P16655 1-263)
chain: MNPGQDREKIVNIEERIPKIKEQRKQKANRRLISFIMLFFIMVLIIVYLQTPISKVSTISVTGNENVSKKEIIDLSDINSGDTEFWSLDKQKTEKKIQQNKLVKKAEISKSLPNKINIAIEEYKAIAYLEKDDVYYEVLENGSVLPNEVTPDDAGPILVNWTNAKKRSQMAKQLDALSNSLKQSISEIYYTPVKMDENRIKLYMNDGYVVTASIKTFADRMKTYPSIISQLSSNKKGIIHLEVATYFEEFGKNDKAAKKEDEN
In the case of B1, the binding entry in test [1] and in test [2] was “binds” in each case.

B2: DivIB-FLAG (protein, UniProt P16655 1-263)
chain: MNPGQDREKIVNIEERIPKIKEQRKQKANRRLISFIMLFFIMVLIIVYLQTPISKVSTISVTGNENVSKKEIIDLSDINSGDTEFWSLDKQKTEKKIQQNKLVKKAEISKSLPNKINIAIEEYKAIAYLEKDDVYYEVLENGSVLPNEVTPDDAGPILVNWTNAKKRSQMAKQLDALSNSLKQSISEIYYTPVKMDENRIKLYMNDGYVVTASIKTFADRMKTYPSIISQLSSNKKGIIHLEVATYFEEFGKNDKAAKKEDEN
As to B2, the binding result in test [3] is “binds”.

B3: Bacillus subtilis DivIC (BACTH fusion) (protein, UniProt P37471 1-125)
chain: MNFSRERTITEIQNDYKEQVERQNQLKKRRRKGLYRRLTVFGALVFLTAIVLASSVWSQTSSLSAKEEKKEQLEKELKSLKTKQTDLKEEISKLKDEDYVTELARRDLFMSGDGEIIFNVEKKSK
In the case of B3, in test [1], the binding result is on record as “no binding”.

B4: Bacillus subtilis FtsL (BACTH fusion) (protein, UniProt Q07867 1-117)
chain: MSNLAYQPEKQQRHAISPEKKVIVKKRASITLGEKVLLVLFAAAVLSVSLLIVSKAYAAYQTNIEVQKLEEQISSENKQIGDLEKSVADLSKPQRIMDIAKKNGLNLKDKKVKNIQE
Take B4: the binding entry in test [1] and in test [2] was “binds” throughout.
